# Measured values reported in patent US20120088841A1, “COMPOSITION AND A METHOD OF TREATING CNS DISORDERS AND HYPERPIGMENTATION” (priority 2010, published 2012).
# Chains of the proteins cited; added tags and fusions are not shown. Residues count along the entry.
# UniProt P56819, 46-501: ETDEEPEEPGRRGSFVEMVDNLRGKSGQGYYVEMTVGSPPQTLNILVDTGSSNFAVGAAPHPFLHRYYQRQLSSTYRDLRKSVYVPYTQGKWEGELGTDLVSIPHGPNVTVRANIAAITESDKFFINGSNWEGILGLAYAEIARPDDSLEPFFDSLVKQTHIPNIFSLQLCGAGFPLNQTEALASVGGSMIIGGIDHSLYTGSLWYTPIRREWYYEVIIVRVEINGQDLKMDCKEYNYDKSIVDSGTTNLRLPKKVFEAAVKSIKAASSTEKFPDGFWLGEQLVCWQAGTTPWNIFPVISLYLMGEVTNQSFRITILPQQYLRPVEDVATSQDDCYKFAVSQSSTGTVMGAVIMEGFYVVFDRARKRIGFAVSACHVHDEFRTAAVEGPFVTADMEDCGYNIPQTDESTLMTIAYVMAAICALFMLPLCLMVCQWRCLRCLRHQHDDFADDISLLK
# For at least one compound, name, drawing or mass did not settle the structure.
# Legend:
# γ-secretase = assay: Estimation of γ-secretase in supernatant from brain tissue homogenate of ICV STZ rats; format: in vivo; conditions: chronic oral treatment 0.5, 1, 2 and 4 mg/kg for 21 days
# β-secretase = biological target: T1, β-secretase (Rattus norvegicus, UniProt P56819); assay: Estimation of β-secretase in supernatant from brain tissue homogenate of ICV STZ rats; format: in vivo; conditions: chronic oral treatment 0.5, 1, 2 and 4 mg/kg for 21 days
# T1 construct: The tissue samples from all the experimental groups were tested for β- and γ-secretase activities; from tissue; host or cells: rat brain homogenate supernatant
# TNF-α = assay: Quantification of TNF-α in supernatant from brain tissue homogenate of ICV STZ rats; format: in vivo; conditions: graded doses 0.5, 1, 2 and 4 mg/kg p.o., day 21, brain homogenate, dose dependent
# [1] = biological target: Mushroom Tyrosinase enzyme; assay: Tyrosinase inhibition; format: biochemical; conditions: 40 units Mushroom Tyrosinase, 0.7 mM L-Tyrosine disodium, 37° C.
# Text: Pigmentation is a multistep process critically dependent on the functional integrity of tyrosinase, the rate-limiting enzyme in melanin synthesis. Biosynthesis of melanin is initiated by the catalytic oxidation of tyrosine to 3, 4 dihydroxy phenylalanine (dopa) by tyrosinase. Subsequent reactions happen spontaneously eventually resulting in the synthesis of melanin. Under in vitro conditions, tyrosinase enzyme acts on L-Tyrosine forming a pink colored complex. This pink color intensity formed during the reaction is quenched in the presence of the inhibitor. The assay is performed in a 96 well clear microtitre plate. The compound hydroxychavicol, crude betel leaf extract and the reference standard in suitable vehicle (PBS or 0.2% DMSO) is pre incubated with 40 units of Mushroom Tyrosinase enzyme at 37° C. for 10 minutes. The reaction is initiated by adding 0.7 mM L-Tyrosine disodium and the absorbance is read after 10 minutes of incubation at 37° C. in FluostarOptima microplate reader at 492 nm. The dose dependent inhibitory activity of samples is calculated and the results are expressed as IC50 values using Graphpad prism software.
# AChE = biological target: T2, AChE (Rattus norvegicus, UniProt P37136); assay: Acetylcholinesterase assay in brain of ICV STZ rats; format: in vivo; conditions: chronic oral administration 0.5, 1, 2 and 4 mg/kg, compared to STZ-injected group
# T2 construct: from tissue; host or cells: rat brain
# T2 sequence (P37136 32-614): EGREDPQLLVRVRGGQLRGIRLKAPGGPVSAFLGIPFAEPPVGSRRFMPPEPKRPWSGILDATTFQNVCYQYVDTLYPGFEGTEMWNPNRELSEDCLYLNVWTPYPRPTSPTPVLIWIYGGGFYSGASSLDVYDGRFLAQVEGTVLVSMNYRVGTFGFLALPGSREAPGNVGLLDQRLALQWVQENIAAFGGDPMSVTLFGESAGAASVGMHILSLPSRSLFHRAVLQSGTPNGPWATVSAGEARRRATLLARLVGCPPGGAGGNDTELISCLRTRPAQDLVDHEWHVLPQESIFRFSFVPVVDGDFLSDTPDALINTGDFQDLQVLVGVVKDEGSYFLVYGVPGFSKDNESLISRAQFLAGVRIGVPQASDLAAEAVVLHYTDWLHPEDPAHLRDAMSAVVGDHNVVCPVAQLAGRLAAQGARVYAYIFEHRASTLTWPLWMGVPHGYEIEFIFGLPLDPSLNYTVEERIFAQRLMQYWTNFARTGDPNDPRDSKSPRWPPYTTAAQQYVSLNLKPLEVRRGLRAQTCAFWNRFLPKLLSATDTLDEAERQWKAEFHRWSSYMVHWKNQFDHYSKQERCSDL
smiles,measurement,setting,value
"C=CCc1ccc(O)c(O)c1 [HC, Hydroxychavicol]",concentration / enzymatic activity of γ-secretase,γ-secretase,decreased
same,concentration / enzymatic activity of β-secretase,β-secretase,decreased
same,TNF-α level,TNF-α,significantly decreased
same,Tyrosinase inhibition IC50,[1],8 µg/mL
same,brain AChE activity,AChE,significantly reversed the increase in AChE activity
